Results as given in the supplement of paper PMC12823440, “Inhibitors supercharge kinase turnover through native proteolytic circuits” (Nature, 2025).
The other results are listed elsewhere or left out. Hit calls seldom repeat between salt and free forms of one compound.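 Kinases, fused to nanoluciferase, were expressed in K562 cells; luminescence was measured every 4 h from 2 to 18 h as percent of control (DMSO = 100%, positive control = 0%). A time point is decreased if signal falls significantly (2 sigma). Hits were called by the authors by a rule that is not shown; the count of time points alone does not decide it.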

Sequences of proteins named here, by UniProt entry; tags and fusion partners are left off. A change or cut given only in a name is not applied to a line headed by its entry.
UniProt P31749: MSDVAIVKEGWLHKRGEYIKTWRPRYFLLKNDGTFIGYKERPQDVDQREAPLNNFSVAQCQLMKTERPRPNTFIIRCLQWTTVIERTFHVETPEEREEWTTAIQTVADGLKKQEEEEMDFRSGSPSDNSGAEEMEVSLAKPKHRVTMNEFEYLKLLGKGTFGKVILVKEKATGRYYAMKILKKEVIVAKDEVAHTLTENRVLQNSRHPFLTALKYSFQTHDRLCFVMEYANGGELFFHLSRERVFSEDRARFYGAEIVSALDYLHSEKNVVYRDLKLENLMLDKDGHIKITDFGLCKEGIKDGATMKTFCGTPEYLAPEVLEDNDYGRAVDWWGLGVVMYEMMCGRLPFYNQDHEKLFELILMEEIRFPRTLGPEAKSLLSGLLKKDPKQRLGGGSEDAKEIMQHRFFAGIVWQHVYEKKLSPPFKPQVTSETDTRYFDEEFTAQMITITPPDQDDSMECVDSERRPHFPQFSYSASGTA
UniProt Q9UM73: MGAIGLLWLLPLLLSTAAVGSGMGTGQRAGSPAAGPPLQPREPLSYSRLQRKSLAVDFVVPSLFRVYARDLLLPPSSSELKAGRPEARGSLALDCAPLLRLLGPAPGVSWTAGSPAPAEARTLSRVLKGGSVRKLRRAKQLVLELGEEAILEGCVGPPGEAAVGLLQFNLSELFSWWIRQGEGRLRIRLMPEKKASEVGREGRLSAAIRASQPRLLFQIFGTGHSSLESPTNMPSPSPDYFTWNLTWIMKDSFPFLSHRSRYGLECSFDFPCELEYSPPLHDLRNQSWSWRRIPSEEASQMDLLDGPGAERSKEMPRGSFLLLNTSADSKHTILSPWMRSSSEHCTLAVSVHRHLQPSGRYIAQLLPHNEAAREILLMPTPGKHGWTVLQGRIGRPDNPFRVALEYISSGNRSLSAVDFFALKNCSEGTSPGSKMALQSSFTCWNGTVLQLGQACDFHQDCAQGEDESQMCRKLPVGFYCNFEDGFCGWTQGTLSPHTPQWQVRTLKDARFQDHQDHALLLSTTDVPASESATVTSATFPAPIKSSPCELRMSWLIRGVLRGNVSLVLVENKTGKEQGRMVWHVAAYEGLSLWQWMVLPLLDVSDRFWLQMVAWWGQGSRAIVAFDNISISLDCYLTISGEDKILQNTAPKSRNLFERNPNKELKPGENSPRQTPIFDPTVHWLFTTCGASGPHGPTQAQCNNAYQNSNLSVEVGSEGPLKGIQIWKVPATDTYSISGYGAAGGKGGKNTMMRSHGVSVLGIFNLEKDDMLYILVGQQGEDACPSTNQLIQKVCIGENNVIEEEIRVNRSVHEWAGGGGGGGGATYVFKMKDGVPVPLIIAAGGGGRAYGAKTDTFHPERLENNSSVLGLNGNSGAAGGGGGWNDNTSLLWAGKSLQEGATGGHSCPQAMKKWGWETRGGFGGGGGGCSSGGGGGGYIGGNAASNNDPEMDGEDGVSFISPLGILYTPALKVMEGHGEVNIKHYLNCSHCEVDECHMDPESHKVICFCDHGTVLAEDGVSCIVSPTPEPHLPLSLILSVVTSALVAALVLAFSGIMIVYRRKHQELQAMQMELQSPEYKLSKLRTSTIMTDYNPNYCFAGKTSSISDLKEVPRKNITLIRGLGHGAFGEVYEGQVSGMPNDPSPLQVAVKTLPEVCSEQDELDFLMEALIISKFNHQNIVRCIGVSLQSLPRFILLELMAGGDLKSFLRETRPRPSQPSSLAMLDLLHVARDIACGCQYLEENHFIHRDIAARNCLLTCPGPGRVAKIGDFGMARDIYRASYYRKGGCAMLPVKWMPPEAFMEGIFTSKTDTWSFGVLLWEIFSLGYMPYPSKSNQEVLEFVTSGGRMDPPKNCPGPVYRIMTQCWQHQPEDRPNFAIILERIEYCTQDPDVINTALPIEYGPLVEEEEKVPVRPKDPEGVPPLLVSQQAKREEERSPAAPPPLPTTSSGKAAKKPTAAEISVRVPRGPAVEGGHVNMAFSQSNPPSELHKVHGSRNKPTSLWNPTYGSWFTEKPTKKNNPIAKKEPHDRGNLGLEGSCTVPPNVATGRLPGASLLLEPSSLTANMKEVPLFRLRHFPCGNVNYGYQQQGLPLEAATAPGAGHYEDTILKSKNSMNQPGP
UniProt Q9UQB9: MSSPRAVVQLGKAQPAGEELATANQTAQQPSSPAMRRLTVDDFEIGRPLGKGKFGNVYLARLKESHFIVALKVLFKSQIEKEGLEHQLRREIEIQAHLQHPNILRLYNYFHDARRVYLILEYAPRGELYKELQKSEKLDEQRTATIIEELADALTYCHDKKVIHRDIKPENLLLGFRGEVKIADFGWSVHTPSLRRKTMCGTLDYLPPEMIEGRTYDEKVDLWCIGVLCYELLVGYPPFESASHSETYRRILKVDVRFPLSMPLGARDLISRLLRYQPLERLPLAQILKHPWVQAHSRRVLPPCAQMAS
UniProt P51813: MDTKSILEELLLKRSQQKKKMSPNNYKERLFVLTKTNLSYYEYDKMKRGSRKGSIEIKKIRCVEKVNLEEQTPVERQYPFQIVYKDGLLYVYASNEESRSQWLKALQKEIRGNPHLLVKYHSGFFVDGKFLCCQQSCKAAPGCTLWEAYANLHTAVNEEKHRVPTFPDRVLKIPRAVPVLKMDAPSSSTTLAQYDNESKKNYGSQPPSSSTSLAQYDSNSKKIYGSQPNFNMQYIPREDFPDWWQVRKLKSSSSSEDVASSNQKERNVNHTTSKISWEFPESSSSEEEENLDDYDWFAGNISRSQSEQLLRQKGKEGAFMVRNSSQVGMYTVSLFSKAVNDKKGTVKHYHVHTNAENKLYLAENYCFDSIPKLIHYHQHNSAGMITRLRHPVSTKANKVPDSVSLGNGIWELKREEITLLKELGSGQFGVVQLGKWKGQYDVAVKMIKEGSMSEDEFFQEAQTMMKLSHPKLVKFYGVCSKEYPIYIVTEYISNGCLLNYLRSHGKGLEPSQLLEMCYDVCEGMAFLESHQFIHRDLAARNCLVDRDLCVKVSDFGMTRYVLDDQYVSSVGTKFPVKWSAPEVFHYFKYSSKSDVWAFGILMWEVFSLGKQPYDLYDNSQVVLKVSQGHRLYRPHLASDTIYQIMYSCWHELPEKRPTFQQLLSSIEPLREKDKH
UniProt P15056, whole entry, looked up: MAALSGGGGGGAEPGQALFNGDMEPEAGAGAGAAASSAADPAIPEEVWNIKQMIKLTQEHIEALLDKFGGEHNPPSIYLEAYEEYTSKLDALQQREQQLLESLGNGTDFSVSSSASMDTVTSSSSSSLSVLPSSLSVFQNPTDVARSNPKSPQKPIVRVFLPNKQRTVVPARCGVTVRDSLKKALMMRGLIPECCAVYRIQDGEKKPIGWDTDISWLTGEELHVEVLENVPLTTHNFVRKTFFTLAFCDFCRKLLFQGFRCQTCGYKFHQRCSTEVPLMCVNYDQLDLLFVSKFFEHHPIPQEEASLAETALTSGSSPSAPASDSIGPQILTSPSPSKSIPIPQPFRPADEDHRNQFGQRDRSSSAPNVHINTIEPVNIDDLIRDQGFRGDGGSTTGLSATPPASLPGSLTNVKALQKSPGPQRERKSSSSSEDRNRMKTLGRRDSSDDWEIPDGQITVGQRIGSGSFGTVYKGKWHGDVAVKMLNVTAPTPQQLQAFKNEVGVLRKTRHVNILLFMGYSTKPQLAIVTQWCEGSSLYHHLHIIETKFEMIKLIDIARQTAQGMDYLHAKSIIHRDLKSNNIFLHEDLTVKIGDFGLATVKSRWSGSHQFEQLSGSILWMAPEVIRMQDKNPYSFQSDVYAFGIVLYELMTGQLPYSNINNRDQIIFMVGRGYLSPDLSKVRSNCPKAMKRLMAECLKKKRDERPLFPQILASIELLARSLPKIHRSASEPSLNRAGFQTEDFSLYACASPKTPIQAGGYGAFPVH
UniProt Q06187: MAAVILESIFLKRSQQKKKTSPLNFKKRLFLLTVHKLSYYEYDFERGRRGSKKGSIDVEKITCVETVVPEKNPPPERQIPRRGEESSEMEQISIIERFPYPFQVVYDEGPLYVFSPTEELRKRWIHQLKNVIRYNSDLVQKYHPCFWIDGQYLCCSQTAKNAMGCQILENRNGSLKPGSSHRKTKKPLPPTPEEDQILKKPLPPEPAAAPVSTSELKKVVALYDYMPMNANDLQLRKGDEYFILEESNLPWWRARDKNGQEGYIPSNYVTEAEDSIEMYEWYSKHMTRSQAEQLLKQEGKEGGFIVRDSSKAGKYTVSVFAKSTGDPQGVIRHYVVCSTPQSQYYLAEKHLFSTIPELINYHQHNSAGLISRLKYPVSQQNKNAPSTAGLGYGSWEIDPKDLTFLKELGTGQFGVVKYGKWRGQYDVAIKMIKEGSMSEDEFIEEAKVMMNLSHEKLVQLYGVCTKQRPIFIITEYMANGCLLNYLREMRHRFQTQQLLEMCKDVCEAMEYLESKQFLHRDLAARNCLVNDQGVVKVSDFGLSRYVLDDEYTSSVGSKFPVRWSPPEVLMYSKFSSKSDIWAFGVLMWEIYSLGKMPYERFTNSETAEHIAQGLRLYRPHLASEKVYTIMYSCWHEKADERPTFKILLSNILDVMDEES
UniProt Q9UQM7, whole entry: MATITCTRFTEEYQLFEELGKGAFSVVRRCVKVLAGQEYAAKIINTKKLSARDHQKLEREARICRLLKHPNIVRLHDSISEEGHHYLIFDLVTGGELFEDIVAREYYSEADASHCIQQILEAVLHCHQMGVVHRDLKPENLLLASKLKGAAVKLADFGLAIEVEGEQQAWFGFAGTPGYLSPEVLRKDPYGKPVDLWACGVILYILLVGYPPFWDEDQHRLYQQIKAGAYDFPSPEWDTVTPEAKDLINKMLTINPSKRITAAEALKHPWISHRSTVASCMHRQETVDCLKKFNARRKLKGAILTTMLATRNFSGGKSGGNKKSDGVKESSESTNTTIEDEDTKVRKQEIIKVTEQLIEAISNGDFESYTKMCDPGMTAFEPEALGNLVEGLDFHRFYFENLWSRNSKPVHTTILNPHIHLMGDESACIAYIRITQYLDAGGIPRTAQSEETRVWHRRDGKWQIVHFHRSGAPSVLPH
UniProt Q13555: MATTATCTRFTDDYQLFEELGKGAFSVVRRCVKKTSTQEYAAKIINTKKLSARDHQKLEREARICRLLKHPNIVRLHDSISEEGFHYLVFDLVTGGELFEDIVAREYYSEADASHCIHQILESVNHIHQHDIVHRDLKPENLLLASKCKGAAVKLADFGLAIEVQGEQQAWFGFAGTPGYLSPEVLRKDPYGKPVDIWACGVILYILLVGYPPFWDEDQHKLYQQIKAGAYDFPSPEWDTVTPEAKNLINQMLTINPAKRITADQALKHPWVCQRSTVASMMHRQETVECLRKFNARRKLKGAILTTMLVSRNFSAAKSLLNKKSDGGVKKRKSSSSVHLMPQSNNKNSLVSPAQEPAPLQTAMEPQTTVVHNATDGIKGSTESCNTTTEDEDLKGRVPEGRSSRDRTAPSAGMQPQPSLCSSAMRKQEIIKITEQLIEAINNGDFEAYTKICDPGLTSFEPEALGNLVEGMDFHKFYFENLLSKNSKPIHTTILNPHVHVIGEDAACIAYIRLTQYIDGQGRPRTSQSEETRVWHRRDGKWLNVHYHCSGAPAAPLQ
UniProt Q15131: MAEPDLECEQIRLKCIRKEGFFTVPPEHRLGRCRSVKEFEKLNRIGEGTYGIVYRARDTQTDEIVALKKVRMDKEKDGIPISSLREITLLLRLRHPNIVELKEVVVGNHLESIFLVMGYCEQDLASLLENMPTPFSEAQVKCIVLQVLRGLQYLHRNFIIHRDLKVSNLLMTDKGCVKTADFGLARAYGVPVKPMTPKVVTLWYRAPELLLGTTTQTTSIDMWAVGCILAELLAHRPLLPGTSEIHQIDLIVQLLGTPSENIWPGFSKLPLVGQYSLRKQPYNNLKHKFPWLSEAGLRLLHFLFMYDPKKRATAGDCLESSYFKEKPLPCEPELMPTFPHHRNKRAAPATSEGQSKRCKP
UniProt Q00526: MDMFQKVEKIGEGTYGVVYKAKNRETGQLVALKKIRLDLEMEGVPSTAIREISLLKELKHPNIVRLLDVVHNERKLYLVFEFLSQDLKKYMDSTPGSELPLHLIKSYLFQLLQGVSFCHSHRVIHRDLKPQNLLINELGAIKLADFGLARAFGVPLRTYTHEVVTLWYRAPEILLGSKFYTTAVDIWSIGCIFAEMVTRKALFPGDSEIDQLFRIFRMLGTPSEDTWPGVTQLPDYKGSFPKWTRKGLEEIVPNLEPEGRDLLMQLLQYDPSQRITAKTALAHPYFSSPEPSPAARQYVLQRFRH
UniProt Q00534, whole entry: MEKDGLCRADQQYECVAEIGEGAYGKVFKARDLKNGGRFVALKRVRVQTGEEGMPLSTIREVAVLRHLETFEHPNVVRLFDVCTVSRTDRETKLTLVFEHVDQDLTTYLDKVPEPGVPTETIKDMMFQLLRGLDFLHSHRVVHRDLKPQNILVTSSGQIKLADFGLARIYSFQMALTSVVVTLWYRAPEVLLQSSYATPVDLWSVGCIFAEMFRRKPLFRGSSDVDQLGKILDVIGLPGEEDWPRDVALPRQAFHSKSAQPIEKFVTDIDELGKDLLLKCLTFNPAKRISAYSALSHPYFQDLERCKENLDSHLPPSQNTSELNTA

Key:
Experiment in all cases: kinase-Nluc reporter destabilization hit call (1 = scored as downregulated) (binary); higher = compound decreases kinase abundance
Details in all cases: K562; 2-18 h
[1] = target: ABL1 (UniProt P00519)
[2] = target: AKT1 (UniProt P31749)
[3] = target: ALK (UniProt Q9UM73)
[4] = target: ARAF (UniProt P10398)
[5] = target: AURKA (UniProt O14965)
[6] = target: AURKB (UniProt Q96GD4)
[7] = target: AURKC (UniProt Q9UQB9)
[8] = target: BLK (UniProt P51451)
[9] = target: BMX (UniProt P51813)
[10] = target: BRAF (UniProt P15056)
[11] = test system: BRAF_V600E
[12] = target: BTK (UniProt Q06187)
[13] = target: CAMK2A (UniProt Q9UQM7)
[14] = target: CAMK2G (UniProt Q13555)
[15] = target: CDK10 (UniProt Q15131)
[16] = target: CDK2 (UniProt P24941)
[17] = target: CDK3 (UniProt Q00526)
[18] = target: CDK4 (UniProt P11802)
[19] = target: CDK5 (UniProt Q00535)
[20] = target: CDK6 (UniProt Q00534)

SMILES	kinase-Nluc reporter destabilization hit call [1]	kinase-Nluc reporter destabilization hit call [2]	kinase-Nluc reporter destabilization hit call [3]	kinase-Nluc reporter destabilization hit call [4]	kinase-Nluc reporter destabilization hit call [5]	kinase-Nluc reporter destabilization hit call [6]	kinase-Nluc reporter destabilization hit call [7]	kinase-Nluc reporter destabilization hit call [8]	kinase-Nluc reporter destabilization hit call [9]	kinase-Nluc reporter destabilization hit call [10]	kinase-Nluc reporter destabilization hit call [11]	kinase-Nluc reporter destabilization hit call [12]	kinase-Nluc reporter destabilization hit call [13]	kinase-Nluc reporter destabilization hit call [14]	kinase-Nluc reporter destabilization hit call [15]	kinase-Nluc reporter destabilization hit call [16]	kinase-Nluc reporter destabilization hit call [17]	kinase-Nluc reporter destabilization hit call [18]	kinase-Nluc reporter destabilization hit call [19]	kinase-Nluc reporter destabilization hit call [20]
O=C(O)/C=C(\CCc1ccc(Cl)cc1)c1ccccc1 (10 µM)	inactive: 0	inactive: 0	inactive: 0	inactive: 0	inactive: 0	inactive: 0	inactive: 0	inactive: 0	inactive: 0	inactive: 0	inactive: 0	inactive: 0	inactive: 0	inactive: 0	inactive: 0	inactive: 0	inactive: 0	inactive: 0	inactive: 0	inactive: 0
COc1ccc2nc3ccc(OC)cc3c(SCCCN)c2c1 (10 µM)	inactive: 0	inactive: 0	inactive: 0	inactive: 0	inactive: 0	inactive: 0	inactive: 0	inactive: 0	inactive: 0	inactive: 0	inactive: 0	inactive: 0	inactive: 0	inactive: 0	inactive: 0	inactive: 0	inactive: 0	inactive: 0	inactive: 0	inactive: 0
CN(C)C(=O)c1cc2cnc(Nc3ccc(N4CCN(CCCCNC(=O)COc5cccc6c5C(=O)N(C5CCC(=O)NC5=O)C6=O)CC4)cn3)nc2n1C1CCCC1 (stereo not given) (10 µM)	inactive: 0	inactive: 0	inactive: 0	inactive: 0	inactive: 0	inactive: 0	inactive: 0	inactive: 0	inactive: 0	inactive: 0	inactive: 0	inactive: 0	inactive: 0	inactive: 0	inactive: 0	inactive: 0	inactive: 0	inactive: 0	inactive: 0	inactive: 0
O=C1OC(COc2ccccc2[N+](=O)[O-])CC1Cc1ccccc1 (stereo not given) (10 µM)	inactive: 0	inactive: 0	inactive: 0	inactive: 0	inactive: 0	inactive: 0	inactive: 0	inactive: 0	inactive: 0	inactive: 0	inactive: 0	inactive: 0	inactive: 0	inactive: 0	inactive: 0	inactive: 0	inactive: 0	inactive: 0	inactive: 0	inactive: 0
CN(C[C@@H]1COCCO1)S(=O)(=O)Nc1ccc2ccc3ncc(-c4cnn(C)c4)cc3c(=O)c2c1 (2.5 µM)	inactive: 0	inactive: 0	inactive: 0	inactive: 0	inactive: 0	inactive: 0	inactive: 0	inactive: 0	inactive: 0	inactive: 0	inactive: 0	inactive: 0	inactive: 0	inactive: 0	inactive: 0	inactive: 0	inactive: 0	inactive: 0	inactive: 0	inactive: 0
C[C@@H]1CN(Cc2ccc(F)cc2)[C@@H](C)CN1C(=O)c1cc2c(C(=O)C(=O)N(C)C)cn(C)c2cc1Cl [Talmapimod] (10 µM)	inactive: 0	inactive: 0	inactive: 0	inactive: 0	inactive: 0	inactive: 0	inactive: 0	inactive: 0	inactive: 0	inactive: 0	inactive: 0	inactive: 0	inactive: 0	inactive: 0	inactive: 0	inactive: 0	inactive: 0	inactive: 0	inactive: 0	inactive: 0
CCNC(=O)Nc1ccc(-c2nc3c(c(N4CCOC[C@@H]4C)n2)CCN(C2COC2)C3)cc1 (2.5 µM)	inactive: 0	inactive: 0	inactive: 0	inactive: 0	inactive: 0	inactive: 0	inactive: 0	inactive: 0	inactive: 0	inactive: 0	inactive: 0	inactive: 0	inactive: 0	inactive: 0	inactive: 0	inactive: 0	inactive: 0	inactive: 0	inactive: 0	inactive: 0
C[C@@H]1COC(Nc2ccc3ncnc(Nc4ccc(OCc5nccs5)c(Cl)c4)c3c2)=N1 [Varlitinib] (10 µM)	inactive: 0	inactive: 0	inactive: 0	inactive: 0	inactive: 0	inactive: 0	inactive: 0	inactive: 0	inactive: 0	inactive: 0	inactive: 0	inactive: 0	inactive: 0	inactive: 0	inactive: 0	inactive: 0	inactive: 0	inactive: 0	inactive: 0	inactive: 0
N#C/C(=C/c1ccc(O)c(O)c1)C(=O)N1CCc2ccccc21 [Tyrphostin AG 528] (10 µM)	inactive: 0	inactive: 0	inactive: 0	inactive: 0	inactive: 0	inactive: 0	inactive: 0	inactive: 0	inactive: 0	inactive: 0	inactive: 0	inactive: 0	inactive: 0	inactive: 0	inactive: 0	inactive: 0	inactive: 0	inactive: 0	inactive: 0	inactive: 0
Cc1cccc(CC(=O)N2CCc3c2ccc(-c2cn(C)c4ncnc(N)c24)c3F)n1 (10 µM)	inactive: 0	inactive: 0	inactive: 0	inactive: 0	inactive: 0	inactive: 0	inactive: 0	inactive: 0	inactive: 0	inactive: 0	inactive: 0	inactive: 0	inactive: 0	inactive: 0	inactive: 0	inactive: 0	inactive: 0	inactive: 0	inactive: 0	inactive: 0
CC(C)(CCCCCC(O)CCCCCC(C)(C)C(=O)O)C(=O)O [Bempedoic acid] (10 µM)	inactive: 0	inactive: 0	inactive: 0	inactive: 0	inactive: 0	inactive: 0	inactive: 0	inactive: 0	inactive: 0	inactive: 0	inactive: 0	inactive: 0	inactive: 0	inactive: 0	inactive: 0	inactive: 0	inactive: 0	inactive: 0	inactive: 0	inactive: 0
CN(C)c1cc[n+](Cc2ccc(OCCOc3ccc(C[n+]4ccc(N(C)C)cc4)cc3)cc2)cc1 (10 µM)	inactive: 0	inactive: 0	inactive: 0	inactive: 0	inactive: 0	inactive: 0	inactive: 0	inactive: 0	inactive: 0	inactive: 0	inactive: 0	inactive: 0	inactive: 0	inactive: 0	inactive: 0	inactive: 0	inactive: 0	inactive: 0	inactive: 0	inactive: 0
CO[C@@H]1[C@H](N(C)C(=O)c2ccccc2)C[C@H]2O[C@]1(C)n1c3ccccc3c3c4c(c5c6ccccc6n2c5c31)C(=O)NC4 [Midostaurin] (2.5 µM)	inactive: 0	inactive: 0	inactive: 0	inactive: 0	inactive: 0	inactive: 0	inactive: 0	inactive: 0	inactive: 0	inactive: 0	inactive: 0	inactive: 0	inactive: 0	inactive: 0	inactive: 0	inactive: 0	inactive: 0	inactive: 0	inactive: 0	inactive: 0
CNCc1cc(Oc2ccc3c(ccn3C(=O)Nc3cc(C(F)(F)F)n(C)n3)c2)ncn1 [Acrizanib] (10 µM)	inactive: 0	inactive: 0	inactive: 0	inactive: 0	inactive: 0	inactive: 0	inactive: 0	inactive: 0	inactive: 0	inactive: 0	inactive: 0	inactive: 0	inactive: 0	inactive: 0	inactive: 0	inactive: 0	inactive: 0	inactive: 0	inactive: 0	inactive: 0
CCOC(=O)c1c(N2CCc3ccc(OC)cc3C2)oc(C=C2C=Nc3ncccc32)c1O (10 µM)	active: 1	inactive: 0	inactive: 0	inactive: 0	inactive: 0	inactive: 0	inactive: 0	inactive: 0	inactive: 0	inactive: 0	inactive: 0	inactive: 0	inactive: 0	inactive: 0	inactive: 0	inactive: 0	inactive: 0	inactive: 0	inactive: 0	inactive: 0
COc1cc2nc(-c3cc(F)ccc3O)nc(N[C@@H]3CNC[C@H]3C(C)(C)O)c2cc1OC (2.5 µM)	inactive: 0	inactive: 0	inactive: 0	inactive: 0	inactive: 0	inactive: 0	inactive: 0	inactive: 0	inactive: 0	inactive: 0	inactive: 0	inactive: 0	inactive: 0	inactive: 0	inactive: 0	inactive: 0	inactive: 0	inactive: 0	inactive: 0	inactive: 0
CC1=CC(=O)C(C(C)C)=C/C1=N/OC(=O)c1ccccc1C [Poloxin] (2.5 µM)	inactive: 0	inactive: 0	inactive: 0	inactive: 0	inactive: 0	inactive: 0	inactive: 0	inactive: 0	inactive: 0	inactive: 0	inactive: 0	inactive: 0	inactive: 0	inactive: 0	inactive: 0	inactive: 0	inactive: 0	inactive: 0	inactive: 0	inactive: 0

3 structures already listed, arranged by length of the SMILES, ascending.
SMILES	kinase-Nluc reporter destabilization hit call [1]	kinase-Nluc reporter destabilization hit call [2]	kinase-Nluc reporter destabilization hit call [3]	kinase-Nluc reporter destabilization hit call [4]	kinase-Nluc reporter destabilization hit call [5]	kinase-Nluc reporter destabilization hit call [6]	kinase-Nluc reporter destabilization hit call [7]	kinase-Nluc reporter destabilization hit call [8]	kinase-Nluc reporter destabilization hit call [9]	kinase-Nluc reporter destabilization hit call [10]	kinase-Nluc reporter destabilization hit call [11]	kinase-Nluc reporter destabilization hit call [12]	kinase-Nluc reporter destabilization hit call [13]	kinase-Nluc reporter destabilization hit call [14]	kinase-Nluc reporter destabilization hit call [15]	kinase-Nluc reporter destabilization hit call [16]	kinase-Nluc reporter destabilization hit call [17]	kinase-Nluc reporter destabilization hit call [18]	kinase-Nluc reporter destabilization hit call [19]	kinase-Nluc reporter destabilization hit call [20]
CNCc1cc(Oc2ccc3c(ccn3C(=O)Nc3cc(C(F)(F)F)n(C)n3)c2)ncn1 [Acrizanib] (10 µM)	inactive: 0	inactive: 0	inactive: 0	inactive: 0	inactive: 0	inactive: 0	inactive: 0	inactive: 0	inactive: 0	inactive: 0	inactive: 0	inactive: 0	inactive: 0	inactive: 0	inactive: 0	inactive: 0	inactive: 0	inactive: 0	inactive: 0	inactive: 0
CO[C@@H]1[C@H](N(C)C(=O)c2ccccc2)C[C@H]2O[C@]1(C)n1c3ccccc3c3c4c(c5c6ccccc6n2c5c31)C(=O)NC4 [Midostaurin] (2.5 µM)	inactive: 0	inactive: 0	inactive: 0	inactive: 0	inactive: 0	inactive: 0	inactive: 0	inactive: 0	inactive: 0	inactive: 0	inactive: 0	inactive: 0	inactive: 0	inactive: 0	inactive: 0	inactive: 0	inactive: 0	inactive: 0	inactive: 0	inactive: 0
CN(C)C(=O)c1cc2cnc(Nc3ccc(N4CCN(CCCCNC(=O)COc5cccc6c5C(=O)N(C5CCC(=O)NC5=O)C6=O)CC4)cn3)nc2n1C1CCCC1 (stereo not given) (10 µM)	inactive: 0	inactive: 0	inactive: 0	inactive: 0	inactive: 0	inactive: 0	inactive: 0	inactive: 0	inactive: 0	inactive: 0	inactive: 0	inactive: 0	inactive: 0	inactive: 0	inactive: 0	inactive: 0	inactive: 0	inactive: 0	inactive: 0	inactive: 0
